Measured values taken from the supplement of paper PMC4604168 (melanoma cell lines).
This is one part of the list. Single values are uncertain, as repeats are few or missing.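 The apoptosis fraction was the count of cleaved-PARP antibody-stained nuclei relative to all DNA-stained nuclei, imaged in 1,536-well plates. Screening doses were set so most cells survived, and baseline and induced cleaved-PARP levels vary greatly across cell lines.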

What was measured:
Assay in all cases: cleaved PARP positive nuclei fraction relative to DMSO control; melanoma cells; higher = more apoptosis
Settings in all cases: library dose: low library concentration; 72 h
501Mel = test system: 501Mel
A101D = test system: A101D
A2058 = test system: A2058
A375 = test system: A375
C32 = test system: C32
CBRC008 = test system: CBRC008 (line from a melanoma biopsy)
CBRC013 = test system: CBRC013 (line from a melanoma biopsy)
CBRC014 = test system: CBRC014 (line from a melanoma biopsy)
CBRC016 = test system: CBRC016 (line from a melanoma biopsy)
CBRC017 = test system: CBRC017 (line from a melanoma biopsy)
COLO792 = test system: COLO792
COLO800 = test system: COLO800
COLO829 = test system: COLO829
G361 = test system: G361
IPC-298 = test system: IPC-298
IST-MEL1 = test system: IST-MEL1
LB2518-MEL = test system: LB2518-MEL
LOXIMVI = test system: LOXIMVI
MEL-HO = test system: MEL-HO

SMILES | cleaved PARP positive nuclei fraction (501Mel) [%] | cleaved PARP positive nuclei fraction (A101D) [%] | cleaved PARP positive nuclei fraction (A2058) [%] | cleaved PARP positive nuclei fraction (A375) [%] | cleaved PARP positive nuclei fraction (C32) [%] | cleaved PARP positive nuclei fraction (CBRC008) [%] | cleaved PARP positive nuclei fraction (CBRC013) [%] | cleaved PARP positive nuclei fraction (CBRC014) [%] | cleaved PARP positive nuclei fraction (CBRC016) [%] | cleaved PARP positive nuclei fraction (CBRC017) [%] | cleaved PARP positive nuclei fraction (COLO792) [%] | cleaved PARP positive nuclei fraction (COLO800) [%] | cleaved PARP positive nuclei fraction (COLO829) [%] | cleaved PARP positive nuclei fraction (G361) [%] | cleaved PARP positive nuclei fraction (IPC-298) [%] | cleaved PARP positive nuclei fraction (IST-MEL1) [%] | cleaved PARP positive nuclei fraction (LB2518-MEL) [%] | cleaved PARP positive nuclei fraction (LOXIMVI) [%] | cleaved PARP positive nuclei fraction (MEL-HO) [%]
Cc1cn(-c2cc(NC(=O)c3ccc(C)c(Nc4nccc(-c5cccnc5)n4)c3)cc(C(F)(F)F)c2)cn1 [nilotinib] + C[C@@H]1CCN(C(=O)CC#N)C[C@@H]1N(C)c1ncnc2[nH]ccc12 [CP690550] (first compound 0.2 µM, partner dose 1 µM) | 81 | 69.4 | 96.4 | 126 | 44.8 | 22.8 | 177 | 820 | 62.5 | 86 | 468 | 30.9 | 90.3 | 90.6 | 86.6 | 102 | 71.2 | 923 | 195
N#CC[C@H](C1CCCC1)n1cc(-c2ncnc3[nH]ccc23)cn1 [ruxolitinib] + Cc1cc(N2CCOCC2)cc2[nH]c(-c3c(NC[C@@H](O)c4cccc(Cl)c4)cc[nH]c3=O)nc12 [BMS536924] (first compound 1 µM, partner dose 0.2 µM) | 440 | 37.1 | 203 | 104 | 30.8 | 397 | 90.6 | 72.6 | 94.9 | 99.8 | 66.2 | 57.1 | 82.2 | 74.7 | 43.1 | 59.7 | 76.8 | 87.7 | 68.6
COc1cc([C@@H]2c3cc4c(cc3[C@@H](O[C@@H]3O[C@@H]5CO[C@@H](C)O[C@H]5[C@H](O)[C@H]3O)[C@H]3COC(=O)[C@H]23)OCO4)cc(OC)c1O [etoposide] + COc1cc2c(Oc3ccc4[nH]c(C)cc4c3F)ncnc2cc1OCCCN1CCCC1 [cediranib] (first compound 0.02 µM, partner dose 0.4 µM) | 86.7 | 75.6 | 68.5 | 123 | 48.9 | 67.9 | 101 | 82.2 | 92.3 | 203 | 81.9 | 117 | 70.6 | 121 | 193 | 63.1 | 66.8 | 238 | 73.9
N#CC[C@H](C1CCCC1)n1cc(-c2ncnc3[nH]ccc23)cn1 [ruxolitinib] + COc1cc2c(Oc3ccc4[nH]c(C)cc4c3F)ncnc2cc1OCCCN1CCCC1 [cediranib] (first compound 1 µM, partner dose 0.4 µM) | 71.8 | 34.7 | 118 | 133 | 65.6 | 103 | 133 | 69.3 | 121 | 106 | 93.6 | 144 | 118 | 132 | 106 | 76.9 | 44.7 | 101 | 98
O=c1[nH]nc(Sc2ncc([N+](=O)[O-])s2)n1-c1ccc2c(c1)OCCO2 + NC(=O)Nc1cc(-c2cccc(F)c2)sc1C(=O)N[C@H]1CCCNC1 [AZD7762] (first compound 0.2 µM, partner dose 0.02 µM) | 74.3 | 111 | 53.7 | 352 | 122 | 80.6 | 176 | 81.1 | 186 | 78.3 | 153 | 150 | 74.3 | 101 | 83.8 | 123 | 63.4 | 22.4 | 101
N#CC[C@H](C1CCCC1)n1cc(-c2ncnc3[nH]ccc23)cn1 [ruxolitinib] + CN(NC(=O)CC(=O)NN(C)C(=S)c1ccccc1)C(=S)c1ccccc1 [STA4783] (first compound 1 µM, partner dose 0.006 µM) | 90.9 | 161 | 72.3 | 1750 | 127 | 2440 | 178 | 518 | 511 | 162 | 250 | 121 | 120 | 69.9 | 44.1 | 123 | 51.1 | 42.3 | 143
CC[C@]1(O)C[C@H]2CN(CCc3c([nH]c4ccccc34)[C@@](C(=O)OC)(c3cc4c(cc3OC)N(C=O)[C@H]3[C@@](O)(C(=O)OC)[C@H](OC(C)=O)[C@]5(CC)C=CCN6CC[C@]43[C@@H]65)C2)C1 [vincristine] + COc1cc2c(Oc3ccc4[nH]c(C)cc4c3F)ncnc2cc1OCCCN1CCCC1 [cediranib] (first compound 0.0001 µM, partner dose 0.4 µM) | 40.9 | 49.2 | 130 | 163 | 95.4 | 57.5 | 159 | 69.5 | 116 | 101 | 129 | 98.1 | 80.1 | 137 | 28.4 | 87.4 | 92.4 | 37.3 | 62.4
O=C(/C=C/c1cccnc1)NCCCCC1CCN(C(=O)c2ccccc2)CC1 + CC1(C)NC(=O)N(c2ccc([N+](=O)[O-])c(C(F)(F)F)c2)C1=O [nilutamide] (first compound 0.01 µM, partner dose 1 µM) | 172 | 83.7 | 27.2 | 106 | 104 | 1980 | 64.4 | 95.4 | 478 | 280 | 684 | 202 | 300 | 3530 | 73.8 | 71.1 | 113 | 49.1 | 477
Cc1cn(-c2cc(NC(=O)c3ccc(C)c(Nc4nccc(-c5cccnc5)n4)c3)cc(C(F)(F)F)c2)cn1 [nilotinib] + C=CCn1c(=O)c2cnc(Nc3ccc(N4CCN(C)CC4)cc3)nc2n1-c1cccc(C(C)(C)O)n1 [MK1775] (first compound 0.2 µM, partner dose 0.02 µM) | 98.8 | 281 | 95.6 | 84.7 | 88.5 | 37.1 | 211 | 62.3 | 251 | 89.7 | 111 | 52.2 | 63.5 | 102 | 71.3 | 94.8 | 92.7 | 205 | 140
CC[C@]1(O)C[C@H]2CN(CCc3c([nH]c4ccccc34)[C@@](C(=O)OC)(c3cc4c(cc3OC)N(C=O)[C@H]3[C@@](O)(C(=O)OC)[C@H](OC(C)=O)[C@]5(CC)C=CCN6CC[C@]43[C@@H]65)C2)C1 [vincristine] + COc1cc(Nc2ncc(F)c(Nc3ccc4c(n3)NC(=O)C(C)(C)O4)n2)cc(OC)c1OC [Tamatinib] (first compound 0.0001 µM, partner dose 0.4 µM) | 202 | 132 | 803 | 237 | 49.5 | 593 | 142 | 98.5 | 152 | 131 | 162 | 155 | 82.9 | 112 | 54.7 | 166 | 248 | 49.1 | 173
O=C(/C=C/c1cccnc1)NCCCCC1CCN(C(=O)c2ccccc2)CC1 + CC(C)(C)c1cnc(CSc2cnc(NC(=O)C3CCNCC3)s2)o1 [SNS-032] (first compound 0.01 µM, partner dose 0.01 µM) | 81.6 | 45.7 | 23.8 | 104 | 22.4 | 5440 | 108 | 111 | 893 | 320 | 401 | 148 | 187 | 3220 | 437 | 54.9 | 200 | 225 | 145
COc1cc([C@@H]2c3cc4c(cc3[C@@H](O[C@@H]3O[C@@H]5CO[C@@H](C)O[C@H]5[C@H](O)[C@H]3O)[C@H]3COC(=O)[C@H]23)OCO4)cc(OC)c1O [etoposide] + CO[C@@H]1[C@H](N(C)C(=O)c2ccccc2)C[C@H]2O[C@]1(C)n1c3ccccc3c3c4c(c5c6ccccc6n2c5c31)C(=O)NC4 [Midostaurin] (first compound 0.02 µM, partner dose 0.08 µM) | 95.8 | 60.5 | 83.7 | 117 | 115 | 132 | 144 | 99.4 | 51.4 | 90.6 | 196 | 74.4 | 85.6 | 168 | 49.4 | 69.2 | 98.2 | 163 | 80.2
Cc1ccc(Nc2nccc(N(C)c3ccc4c(C)n(C)nc4c3)n2)cc1S(N)(=O)=O [Pazopanib] + COc1cc(Nc2ncc(F)c(Nc3ccc4c(n3)NC(=O)C(C)(C)O4)n2)cc(OC)c1OC [Tamatinib] (first compound 0.4 µM, partner dose 0.4 µM) | 87.9 | 64.4 | 53.1 | 99.2 | 142 | 278 | 91.7 | 96.6 | 96.8 | 182 | 204 | 105 | 88.3 | 59.3 | 184 | 161 | 228 | 54.5 | 191
Cc1cc(Nc2cc(N3CCN(C)CC3)nc(Sc3ccc(NC(=O)C4CC4)cc3)n2)n[nH]1 [Tozasertib] + O=C(Nc1cccc(Cl)c1)Nc1ncc(CCNc2ncnc3ccsc23)s1 [SNS314] (first compound 0.006 µM, partner dose 0.0008 µM) | 298 | 85 | 103 | 46.5 | 199 | 128 | 124 | 83 | 73.7 | 108 | 119 | 80.1 | 139 | 80.5 | 87.4 | 47.2 | 103 | 111 | 75.8
O=c1[nH]nc(Sc2ncc([N+](=O)[O-])s2)n1-c1ccc2c(c1)OCCO2 + Cn1cncc1[C@@](N)(c1ccc(Cl)cc1)c1ccc2c(c1)c(-c1cccc(Cl)c1)cc(=O)n2C [tipifarnib] (first compound 0.2 µM, partner dose 0.01 µM) | 92.2 | 171 | 86.1 | 96.9 | 99.2 | 163 | 139 | 92.4 | 111 | 201 | 215 | 139 | 83.9 | 136 | 49.7 | 33.7 | 112 | 94.5 | 111
Cc1ccc(Nc2nccc(N(C)c3ccc4c(C)n(C)nc4c3)n2)cc1S(N)(=O)=O [Pazopanib] + O=C(Nc1cccc(Cl)c1)Nc1ncc(CCNc2ncnc3ccsc23)s1 [SNS314] (first compound 0.4 µM, partner dose 0.0008 µM) | 95 | 80.1 | 76.2 | 103 | 175 | 62.3 | 87.5 | 105 | 96.5 | 102 | 42.8 | 70.5 | 42.3 | 115 | 111 | 215 | 162 | 104 | 77

Some entries already given, showing only cleaved PARP positive nuclei fraction (COLO829) [%], cleaved PARP positive nuclei fraction (MEL-HO) [%] and cleaved PARP positive nuclei fraction (501Mel) [%]:
SMILES	cleaved PARP positive nuclei fraction (COLO829) [%]	cleaved PARP positive nuclei fraction (MEL-HO) [%]	cleaved PARP positive nuclei fraction (501Mel) [%]
O=c1[nH]nc(Sc2ncc([N+](=O)[O-])s2)n1-c1ccc2c(c1)OCCO2 + NC(=O)Nc1cc(-c2cccc(F)c2)sc1C(=O)N[C@H]1CCCNC1 [AZD7762] (first compound 0.2 µM, partner dose 0.02 µM)	74.3	101	74.3
N#CC[C@H](C1CCCC1)n1cc(-c2ncnc3[nH]ccc23)cn1 [ruxolitinib] + CN(NC(=O)CC(=O)NN(C)C(=S)c1ccccc1)C(=S)c1ccccc1 [STA4783] (first compound 1 µM, partner dose 0.006 µM)	120	143	90.9
